Where a protein sequence is shown, tags need not be part of it. For some of these results: For at least one entry, the source does not settle the construct or the ends of the probe.

Data set [1] deals with T1, Sclerostin (SOST) (Mus musculus) (UniProt Q99P68).
T1 sequence (looked up): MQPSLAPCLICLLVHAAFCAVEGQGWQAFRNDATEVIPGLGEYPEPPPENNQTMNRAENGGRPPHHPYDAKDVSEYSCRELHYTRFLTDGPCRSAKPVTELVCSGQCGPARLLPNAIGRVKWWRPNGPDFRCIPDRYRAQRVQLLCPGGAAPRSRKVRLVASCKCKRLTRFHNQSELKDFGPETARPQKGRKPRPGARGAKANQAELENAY
Kind of data set: SELEX. The note with it: isolated after 15 rounds, purified recombinant protein, protein details: GST fusion (pGEX-4T1, E. coli BL21(DE3)), single-stranded DNA.

The next data set concerns the target T2, Sclerostin (SOST) (UniProt Q99P68).
T2 sequence (looked up, limits assumed): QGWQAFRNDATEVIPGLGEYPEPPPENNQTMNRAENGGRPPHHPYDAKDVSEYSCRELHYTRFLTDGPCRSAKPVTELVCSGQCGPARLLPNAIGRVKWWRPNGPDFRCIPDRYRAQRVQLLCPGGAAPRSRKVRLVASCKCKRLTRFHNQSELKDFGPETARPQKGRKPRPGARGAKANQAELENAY
The data set can be described thus: activity in cells. The note with it: 3' inverted thymidine (idT); TOPflash Wnt3a reporter in MC3T3-E1; blocks sclerostin antagonism dose-dependently 0.1-1.5 uM, saturated at 1.5 uM; protein in cells; protein details: expression vector co-transfected in MC3T3-E1 cells; single-stranded DNA; variant of Scl 2.

Regarding CCCTCCAAAGCGGGGGGGGTGGGTGGGCAG [Scl 6], in data set [1], the selection result was “selected”. Regarding GGGGGGGGTGGGGTGGGTCAATATTCTCGTC [Scl 4], the selection result in data set [1] (also tested by ELONA at 50 nM) is reported as “selected”. The same measure, in the same setting: with GTTTCCAAAGCCGGGGGGGTGGGATGGGTT [Scl 1] the entry was “selected”; with TGCCTTGTTATTGTGGTGGGCGGGTGGGAC [Scl 3], “selected”. As for TTCTGTCACATGTGGGGGGGGGGGTGGGTT [Scl 7], in data set [1] (listing SEQ 8 differs from sequence printed in text), the selection result is on record as “selected”. Take “TTGCGCGTTAATTGGGGGGGTGGGTGGGTT [3' InT Scl 2]”: the “functional effect of the aptamer” value in the data set with Sclerostin (SOST) is “active”. Turning to TTGCGCGTTAATTGGGGGGGTGGGTGGGTT [Scl 5], the selection result in data set [1] (printed sequence identical to Scl 2) is given as “selected”.
